These are yes or no findings as the source states them, for the method shown. Binding seen in cells or lysates may run through a third protein. Some entries that bind do so weakly or less than the wild type. Where a sequence is shown, tags or fusion partners need not be part of it.

In one test the target is T1, Myomixer (mouse).
T1 chain: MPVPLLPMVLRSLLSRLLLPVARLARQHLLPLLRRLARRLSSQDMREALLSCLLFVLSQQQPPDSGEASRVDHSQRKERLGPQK
Kind of test: co-immunoprecipitation with anti-FLAG M2 resin from lysates of retrovirus-infected cells, western blot. Particulars: remark: other sources report otherwise.

Test [1] concerns the target T2, FLAG-tagged Myomaker (mouse), Q9D1N4.
T2 chain: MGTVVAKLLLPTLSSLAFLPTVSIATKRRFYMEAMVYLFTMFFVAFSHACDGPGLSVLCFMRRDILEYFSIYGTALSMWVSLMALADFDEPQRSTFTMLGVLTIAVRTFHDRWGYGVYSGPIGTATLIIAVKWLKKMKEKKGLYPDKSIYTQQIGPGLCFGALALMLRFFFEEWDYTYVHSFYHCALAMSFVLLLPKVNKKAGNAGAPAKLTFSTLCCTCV
Kind of test: co-immunoprecipitation, 10T1/2 cells or C2C12 myoblasts infected with retroviruses expressing Myomixer and/or FLAG-Myomaker. Particulars: remark: other sources report otherwise.

B1: FLAG-tagged Myomaker, Q9D1N4 1-221 (protein, not shown: small tags and cut ends)
chain: T2 chain
Turning to B1, the binding result with Myomixer (mouse) is “binds”.

B2: Myomixer (peptide)
chain: T1 chain
For B2, the binding result in test [1] is “binds”.

The values above are taken from patent US20190382732A1.
